These are yes or no findings as the source states them, for the method shown.

Binding data for one molecule are collected here from PMC7789814, “The influence of various regions of the FOXP2 sequence on its structure and DNA-binding function”.

The target in the experiment is T1, FOXP2 FHD (UniProt O15409 504-594).
T1 sequence: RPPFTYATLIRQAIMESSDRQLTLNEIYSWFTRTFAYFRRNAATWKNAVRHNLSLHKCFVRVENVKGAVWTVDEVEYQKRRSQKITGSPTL
As to the kind of experiment: SEC; 20 µM protein incubated at 20°C for at least 30 min; HiLoad 16/60 Superdex 75 prep grade; running buffer 500 mM NaCl, 10 mM HEPES pH 7.5, 2 mM DTT; calibrated with 12-200 kDa markers; oligomer size predicted from the monomeric size; both purified.

B1: FOXP2 FHD (domain or fragment, UniProt O15409 503-594)
chain: VRPPFTYATLIRQAIMESSDRQLTLNEIYSWFTRTFAYFRRNAATWKNAVRHNLSLHKCFVRVENVKGAVWTVDEVEYQKRRSQKITGSPTL
As for B1, the binding result is given as “no binding (tested: 20 µM)”.
